Measured values published in paper PMC7498585.
These are yes or no findings as the source states them, for the method shown. In cells and extracts the contact can be indirect. Some results given as binding are weak or reduced against the parent protein; the word gives no strength. Where a sequence is shown, tags or fusion partners need not be part of it. One block for each molecule: values may come before it.

Chains of the proteins cited; added tags and fusions are not shown.
UniProt Q9Y5K8: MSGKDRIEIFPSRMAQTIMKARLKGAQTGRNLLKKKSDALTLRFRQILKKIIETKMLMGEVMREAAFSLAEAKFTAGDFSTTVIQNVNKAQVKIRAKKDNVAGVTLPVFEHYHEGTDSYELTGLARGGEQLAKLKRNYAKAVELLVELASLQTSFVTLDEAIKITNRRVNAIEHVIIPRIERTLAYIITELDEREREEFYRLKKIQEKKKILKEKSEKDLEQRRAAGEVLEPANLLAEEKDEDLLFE

Key:
DRAM1-FLAG (human) = biological target: T1, DRAM1-FLAG (human) (UniProt Q8N682); assay: co-IP; RIPA lysates of DRAM1-overexpressing H1975 and A549 cells; anti-FLAG agarose beads, 4 °C overnight; Western blot for ATP6V1D and ATP6V0D
T1 sequence: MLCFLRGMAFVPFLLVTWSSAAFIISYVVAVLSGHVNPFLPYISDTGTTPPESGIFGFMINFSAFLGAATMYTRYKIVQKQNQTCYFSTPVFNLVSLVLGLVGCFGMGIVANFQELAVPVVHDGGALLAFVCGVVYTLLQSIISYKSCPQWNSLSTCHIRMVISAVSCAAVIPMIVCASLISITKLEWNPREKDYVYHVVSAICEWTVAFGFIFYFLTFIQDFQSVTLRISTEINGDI

3FLAG-DRAM1 (human) = biological target: T2, 3FLAG-DRAM1 (human) (UniProt Q8N682); assay: co-IP; A549 cells transfected with different concentrations of 3FLAG-DRAM1 plasmid; the legend says co-IP with anti-EPS15 antibody, the methods say anti-FLAG agarose beads; RIPA lysate, 4 °C overnight; Western blot
T2 sequence: T1 sequence

binding (DRAM1-FLAG (human)): no binding
Molecule: V-ATP6V1D (from UniProt Q9Y5K8 1-247)

binding (3FLAG-DRAM1 (human)): binds
B1: EPS15 (epidermal growth factor receptor pathway substrate 15) (protein, UniProt P42566 1-896)
chain: MAAAAQLSLTQLSSGNPVYEKYYRQVDTGNTGRVLASDAAAFLKKSGLPDLILGKIWDLADTDGKGILNKQEFFVALRLVACAQNGLEVSLSSLNLAVPPPRFHDTSSPLLISGTSAAELPWAVKPEDKAKYDAIFDSLSPVNGFLSGDKVKPVLLNSKLPVDILGRVWELSDIDHDGMLDRDEFAVAMFLVYCALEKEPVPMSLPPALVPPSKRKTWVVSPAEKAKYDEIFLKTDKDMDGFVSGLEVREIFLKTGLPSTLLAHIWSLCDTKDCGKLSKDQFALAFHLISQKLIKGIDPPHVLTPEMIPPSDRASLQKNIIGSSPVADFSAIKELDTLNNEIVDLQREKNNVEQDLKEKEDTIKQRTSEVQDLQDEVQRENTNLQKLQAQKQQVQELLDELDEQKAQLEEQLKEVRKKCAEEAQLISSLKAELTSQESQISTYEEELAKAREELSRLQQETAELEESVESGKAQLEPLQQHLQDSQQEISSMQMKLMEMKDLENHNSQLNWCSSPHSILVNGATDYCSLSTSSSETANLNEHVEGQSNLESEPIHQESPARSSPELLPSGVTDENEVTTAVTEKVCSELDNNRHSKEEDPFNVDSSSLTGPVADTNLDFFQSDPFVGSDPFKDDPFGKIDPFGGDPFKGSDPFASDCFFRQSTDPFATSSTDPFSAANNSSITSVETLKHNDPFAPGGTVVAASDSATDPFASVFGNESFGGGFADFSTLSKVNNEDPFRSATSSSVSNVVITKNVFEETSVKSEDEPPALPPKIGTPTRPCPLPPGKRSINKLDSPDPFKLNDPFQPFPGNDSPKEKDPEIFCDPFTSATTTTNKEADPSNFANFSAYPSEEDMIEWAKRESEREEEQRLARLNQQEQEDLELAIALSKSEISEA
